Measured values as given in PubChem BioAssay AID485314 (National Center for Advancing Translational Sciences (NCATS), 2010).
The whole screen tested about 340,000 compounds, of which about 4,500 (1.3%) were called active. Inconclusive means that the source gave no clear call. Such entries were picked first, then a sample of the others. The call rests on the fitted dose curve; in most records, active means well fitted inhibition curve with a large enough effect; inconclusive means small, poorly fitted or top-dose-only effect, or another doubt; inactive means no such curve, though single readings can be large or run the other way. Where the call is inconclusive, the potency comes from a doubtful curve fit.

Molecular target: DNA polymerase beta (Homo sapiens) (UniProt P06746)
Test: qHTS Assay for Inhibitors of DNA Polymerase Beta
Conditions: Pol beta primer extension/strand displacement, fluorescence kinetic; activity change, negative = inhibition: at 114 µM (top of the series)
From the text: The base excision repair system in human cells is a target for therapeutic modulation of the response to irradiation treatment and DNA-damaging drugs. A key enzyme in this system is the bi-functional DNA polymerase known as DNA polymerase Beta (Pol Beta). The following is a homogeneous kinetic assay to study the primer extension and strand-displacement reaction catalyzed by pol beta.
A stepwise description of the 1536-well assay is shown in next Table. Three microliters of reagents (buffer in column 3 and 4 as negative control and 10 nM Pol beta in columns 1, 2, and 5-48) was dispensed into 1,536-well black solid-bottomed plate. Compounds (23 nL) were transferred via Kalypsys pin tool equipped with 1536-pin array (10 nL slotted pins, V&P Scientific, San Diego, CA). The plates were incubated for 15 min at room temperature, and 1 uL substrate (50 nM final concentration) were added to start the reaction and immediately read at 0 min read on Viewlux reader. The plate were further incubated for 10 min at room temperature, and then read on Viewlux again. Throughout the screen, reagent bottle and all liquid lines were chilled and made light-tight to minimize reagent degradation. All screening operations were performed on a fully integrated robotic system (Kalypsys, San Diego, CA) containing one RX-130 and two RX-90 anthropomorphic robotic arms (Staubli, Duncan, SC). Library plates were screened starting from the lowest and proceeding to the highest concentration, and a double-dipping step of the highest concentration was required to access higher concentrations of compounds. Vehicle-only plates, with DMSO being pin-transferred to the entire column 5-48 compound area, were inserted uniformly at the beginning and the end of each library in order to monitor for and record any shifts in the background, which can be affected by reagent dispensers or loss in enzyme activity overtime. Screening data were corrected, normalized, and concentration-effect relationships were derived by using publicly-available curve fitting algorithms developed in-house (http://ncgc.nih.gov/pub/openhts). A four parameter Hill equation was fitted to the concentration-response data by minimizing the residual error between the modeled and observed responses.
On the % scale 0 is the no-effect control and ±100 the full control effect; potency means the concentration at half of the fitted maximal effect.

Potency, inactive:
Cc1ccc(NC(=O)c2sc(-n3nc(C)c(Cc4ccc5c(c4)OCO5)c3C)nc2C)cc1C
O=C(O)c1ccc(NC(=S)NC(=O)c2ccc(-c3ccccc3)cc2)cc1
O=C(CCCN1C(=O)/C(=C\c2ccccc2)SC1=S)Nc1ccc(C(=O)O)cc1
CN(C)c1ccc(CNS(=O)(=O)c2ccc3c(c2)C(C)(C)C(=O)N3C)cc1
COc1ccc(-c2oc3ncn4nc(-c5ccccc5C)nc4c3c2-c2ccc(OC)cc2)cc1
NC(=S)N/N=C/c1ccc(-c2ccc([N+](=O)[O-])cc2)o1
CCOC(=O)c1c(NC(=O)/C=C/C(=O)O)sc(C)c1-c1ccc(Cl)cc1
Cc1ccc(C)c(CN2C(=O)c3ccccc3S(=O)(=O)c3ccc(C(=O)N4CCN(c5ccccc5F)CC4)cc32)c1
COc1ccccc1CNC(=O)c1cnc2sc(N3CCCCCC3)nn2c1=O
O=C(COc1ccc(Br)cc1)NCCCn1ccnc1

Potency, active:
COc1ccc(NC(=O)CSc2nc(-c3ccco3)nc3cc(=O)[nH]n23)cc1 25.1 µM
CN(C)c1ccc(CNC(=O)CCS(=O)(=O)c2ccc3c(c2)n(C)c(=O)c(=O)n3C)cc1 25.1 µM
COc1ccc([N+](=O)[O-])cc1NC(=O)CCS(=O)(=O)c1ccc(Br)cc1 15.8 µM
CSc1nc2c(c(=O)[nH]1)C(c1cccs1)C1=C(CCCC1=O)N2 (configuration not stated) 28.2 µM

Potency, inconclusive:
COc1ccc(C2CC(=O)Nc3ccccc3S2(=O)=O)cc1OC (configuration not stated) 89.1 µM [inhibitor, single point]
Cc1cc(NC(=O)c2ccc(Cl)cc2)c(C)cc1O 100 µM [inhibitor, single point]
CCN(CC)CCOC(=O)c1ccc(NC(=O)CCCN2C(=O)S/C(=C/c3ccc(OC)cc3)C2=S)cc1 89.1 µM [inhibitor, single point]
O=C(Nc1nnc(-c2ccco2)o1)c1ccc(N2C(=O)CCC2=O)cc1 89.1 µM [inhibitor, single point]
COC(OC)C(C)NC(=O)NC(=O)c1ccccc1Cl (configuration not stated) 89.1 µM [inhibitor, single point]
Cc1cc(NC(=O)CSc2nnc(C3COc4ccccc4O3)n2C)no1 (configuration not stated) 0.501 µM [inhibitor, full curve, poor fit]
Cc1cc(N/N=C/c2ccccc2Cl)nc(NCc2ccccc2)n1 79.4 µM [inhibitor, single point]
CCCOc1ccc(C2c3c(oc4cc(C)c(C)cc4c3=O)C(=O)N2CCCN2CCOCC2)cc1 (configuration not stated) 12.6 µM [inhibitor, partial curve, poor fit]
Cc1cc(C)cc(NC(=O)CSCc2cc(=O)c3ccc(C)c(C)c3[nH]2)c1 100 µM [inhibitor, single point]
Brc1ccc(-c2csc(/N=C/N3CCCC3)n2)cc1 89.1 µM [inhibitor, single point]
CC(NS(=O)(=O)/C=C/c1ccccc1)C(=O)NCCc1ccc(S(N)(=O)=O)cc1 (configuration not stated) 79.4 µM [inhibitor, single point]
O=C(Nc1ccc2oc(-c3ccccc3F)nc2c1)c1ccc2c(c1)OCCO2 44.7 µM [inhibitor, partial curve]
CC(C)N(CCC(=O)c1ccc2ccccc2c1)Cc1ccccc1 44.7 µM [inhibitor, single point]
C/C(CS(=O)(=O)c1ccccc1)=N\O 17.8 µM [inhibitor, partial curve, poor fit]
COc1ccc2c(c1OC)C(=O)OC2CC(=O)c1ccc(O)c(O)c1 (configuration not stated) 0.316 µM [inhibitor, full curve, poor fit]
Cc1cc(=O)oc2cc(OCC(=O)c3ccc4c(c3)NC(=O)CO4)ccc12 5.01 µM [inhibitor, full curve]
CC(C)(C)c1cc(C(C)(C)C)cc(S(=O)(=O)CCc2ccccn2)c1 44.7 µM [inhibitor, partial curve, poor fit]
O=C(c1cccc(S(=O)(=O)N2CCCC2)c1)N1CCN(c2ccccc2)CC1 63.1 µM [inhibitor, partial curve, poor fit]
O=C(CSc1nnc2ccc3ccccc3n12)c1ccc(F)cc1 25.1 µM [inhibitor, full curve, poor fit]
Cc1nc2sc(C(N)=O)c(N)c2c(-c2ccc(Br)cc2)c1C(=O)Nc1ccc(Cl)cc1 22.4 µM [inhibitor, single point]
O=C(C(=O)N1CCN(c2ccc([N+](=O)[O-])cc2)CC1)c1cn(CC(=O)N2CCOCC2)c2ccccc12 0.158 µM [inhibitor, full curve, poor fit]
O=C(CCCCn1c(=O)c2ccccc2n(CC(=O)NC2CCCC2)c1=O)NCc1ccco1 0.178 µM [inhibitor, full curve, poor fit]
CCOC(=O)C(=CNc1cc(C(F)(F)F)ccc1N1CCOCC1)C(=O)OCC 89.1 µM [inhibitor, single point]
CCc1nc(N=C(N)N)nc2ccccc12 63.1 µM [inhibitor, partial curve, poor fit]
CC1CCCCN1CC(=O)Nc1sc2c(c1C#N)CCC2 (configuration not stated) 8.91 µM [inhibitor, partial curve, poor fit]
COc1ccc(N2CCC(CNC(=O)Nc3cccc(OC)c3)C2)cc1 (configuration not stated) 89.1 µM [inhibitor, single point]

Part of the list above in order of heavy-atom count, low to high.
Potency, inconclusive:
CCc1nc(N=C(N)N)nc2ccccc12 63.1 µM [inhibitor, partial curve, poor fit]
O=C(CSc1nnc2ccc3ccccc3n12)c1ccc(F)cc1 25.1 µM [inhibitor, full curve, poor fit]
COc1ccc2c(c1OC)C(=O)OC2CC(=O)c1ccc(O)c(O)c1 (configuration not stated) 0.316 µM [inhibitor, full curve, poor fit]

Following part:

Activity change, negative = inhibition, inconclusive:
O=C(O)/C=C/c1ccc(S(=O)(=O)Nc2ccc(OCc3ccccc3)cc2)cc1 -39.5% [inhibitor]
COc1ccc(/C=C/C(=O)O)cc1S(=O)(=O)N1CCC(Cc2ccccc2)CC1 -43.1% [inhibitor]
